Assay results: PubChem BioAssay AID485353 (National Center for Advancing Translational Sciences (NCATS), 2010)
Screen size: about 330,000 compounds; about 610 (0.18%) were called active. Inconclusive means that the source gave no clear call. Such entries were picked first, then a sample of the others. The call rests on the fitted dose curve. Potencies of inconclusive entries are doubtful fits and often do not repeat.

Test: qHTS of Yeast-based Assay for SARS-CoV PLP; further: nearly all actives have a fitted effect of over 55% in size
Conditions: S. cerevisiae expressing SARS-CoV PLpro; Potency: growth rescue; series mostly up to 32.9 µM
Potency means the concentration at half of the fitted maximal effect.

Compound | Potency
CCOC(=O)N1CCC2(CC1)NCCc1c2[nH]c2ccccc12 | inactive
Cc1ccc(-n2nc3cc(C)c(NC(=S)NC(=O)/C=C/c4ccco4)cc3n2)cc1 | inactive
Cc1ccc(S(=O)(=O)NCCC(=O)Nc2cccc(Cl)c2)cc1 | inconclusive: 20 µM [activator, single point]
CC(C)n1cc(CN2CCCC(CO)(Cc3cccc(Cl)c3)C2)cn1 (centres undefined) | inactive
COc1ccc(OC)c(-c2nc(C(=O)NCCCN3CCOCC3)cc3c2[nH]c2ccccc23)c1 | inconclusive: 3.98 µM [activator, single point]
COc1ccc(-c2nnc3ccc(SCC(=O)N4CCOCC4)nn23)cc1 | inactive
O=C(O)C[C@@H]1C(=O)O[C@@H]2C(COC(=O)c3cc(O)c(O)c(O)c3)O[C@@H](OC(=O)c3cc(O)c(O)c(O)c3)[C@@H](OC(=O)c3cc(O)c(O)c4c3[C@H]1[C@H](O)C(=O)O4)[C@H]2OC(=O)c1cc(O)c(O)c(O)c1 (some centres undefined) | active: 1.41 µM
Cc1ccc(S(=O)(=O)N2CCOCC(=O)NCCOCCNC(=O)COCC2)cc1 | inconclusive: 11.2 µM [activator, single point]
COc1cccc(-c2nc(CS(=O)CC(=O)NC3CCCC3)c(C)o2)c1 (centres undefined) | inactive
CC(C)CCN1C(=O)C2(OCCCO2)c2cc(Cl)ccc21 | inactive
CC1CCCN(CC(=O)Nc2ccc(S(=O)(=O)N3CCCCCC3)cc2)C1 (centres undefined) | inconclusive: 20 µM [activator, single point]
CCC(=O)OCCNc1cc(Sc2nccn2C)c2nonc2c1[N+](=O)[O-] | inactive
Cn1c(N2CCN(C(=O)Nc3ccc(F)cc3)CC2)nc2ccccc21 | inactive
CCC(=O)Nc1c(C)n[nH]c1C | active: 10 µM
S=C(c1ccc(-c2cc(Cl)ccc2Cl)o1)N1CCOCC1 | inactive
COc1ccc(OC2C(=O)N(c3ccc(C)c(C)c3)C2c2ccc(OC)c(OC)c2)cc1 (centres undefined) | inconclusive: 20 µM [activator, single point]
C=CCn1c(NS(=O)(=O)c2ccccc2)c(S(=O)(=O)c2ccc(C)cc2)c2nc3ccccc3nc21 | inconclusive: 4.47 µM [activator, single point]
Cc1ccc(OCc2cc(C(=O)N3CC4C[C@@H]5CC3C[C@H](C4)C5)no2)cc1C | inconclusive: 3.98 µM [activator, single point]
Cc1cccc(N/C=C(\[N+](=O)[O-])S(=O)(=O)c2ccccc2)c1C | inactive
Cc1cccnc1NCc1ccc(O)c2ncccc12 | inconclusive: 14.1 µM [activator, single point]
COc1ccc2c(CC(=O)NC3CCCc4ccccc43)coc2c1 (centres undefined) | inconclusive: 22.4 µM [activator, single point]
Cc1ccc(CSc2nnc(-c3ccc(NS(=O)(=O)c4ccccc4)cc3)o2)cc1 | inconclusive: 10 µM [activator, partial curve]
CCc1cccc(CC)c1NC(=O)c1cc(CN2C(=O)c3ccccc3C2=O)ccc1OC | inconclusive: 2.82 µM [activator, single point]

Compound | Potency
Cc1cc(NC(=O)CSc2nnc(CNC(=O)c3ccc(C(C)(C)C)cc3)o2)no1 | inactive
O=C(NN1C(=O)C2C3C=CC(C3)[C@H]2C1=O)c1cccnc1 (some centres undefined) | inconclusive: 20 µM [activator, single point]
O=C(N/N=C/c1cccc([N+](=O)[O-])c1O)c1cccs1 | inconclusive: 10 µM [activator, single point]
CC1CN(C(=O)C(Sc2ccccc2)c2ccccc2)CC(C)O1 (centres undefined) | inconclusive: 0.355 µM [activator, full curve, poor fit]
CCOC(=O)c1c(NC(=O)C(Sc2ccccc2)c2ccccc2)sc(C(=O)N(C)C)c1C (centres undefined) | inconclusive: 12.6 µM [activator, single point]
O=C(Nc1ccccc1N1CCCC1)C1CCN(S(=O)(=O)c2ccccc2)CC1 | inactive
C=CCn1nnnc1SCC(=O)Nc1cccc(C(F)(F)F)c1 | inconclusive: 11.2 µM [activator, single point]
Cc1ccc(NC(=S)Nc2ccc3cn[nH]c3c2)cc1C | active: 2.51 µM
Cc1sc2ncnc(N(C)Cc3ccco3)c2c1C | inconclusive: 12.6 µM [activator, single point]
CSc1nc2nc3c(c(=O)n2[nH]1)CCCC3 | inconclusive: 0.355 µM [activator, partial curve, poor fit]
COc1ccc2[nH]c3c(c2c1)CCNC3C (centres undefined) | inconclusive: 2.82 µM [activator, full curve]
C=CCn1c(-c2cccc(Cl)c2)n[nH]c1=S | inconclusive: 11.2 µM [activator, single point]
O=C(CCC(=O)Nc1ccc(F)cc1)N/N=C/c1cccs1 | inconclusive: 14.1 µM [activator, single point]
O=S(=O)(/C=C/c1ccccc1)N1CCOCC1 | inconclusive: 17.8 µM [activator, single point]
Cc1nc(SCC(=O)OCc2ccccc2)c(C#N)c(-c2ccccc2)c1C(=O)Nc1ccccc1 | inactive
Cc1ccc(C2CC(=O)c3cnn(-c4nc(C)cc(C)n4)c3C2)cc1 (centres undefined) | inconclusive: 12.6 µM [activator, single point]
Cc1cccc(NS(=O)(=O)c2ccc(C(=O)NCC(c3ccco3)N(C)C)cc2)c1C (centres undefined) | inconclusive: 14.1 µM [activator, single point]
COc1cc(CN2CCN(c3cccc(C)c3C)CC2)cc(Br)c1O | inactive
C=CCOc1ccc(/C=N/N2C(=O)C(CC(=O)Nc3ccc(F)cc3F)SC2=NC)cc1 (centres undefined) | inconclusive: 1.58 µM [activator, full curve, poor fit]
CN(C)/C=N/C(=S)Nc1ccc(Br)cc1F | inconclusive: 1.78 µM [activator, full curve, poor fit]
FC(F)(F)c1cc(-c2ccccc2)nc(N2CCCCC2)n1 | inconclusive: 14.1 µM [activator, single point]
CCc1cc(C(=O)NC2CCCN(Cc3ccccc3F)C2)n(C)n1 (centres undefined) | inactive
COc1ccc(CNC(=O)CN(C)S(=O)(=O)c2ccc3c(c2)n(C)c(=O)c(=O)n3C)cc1 | inconclusive: 20 µM [activator, single point]

Compound | Potency
Cc1ccc2nc(NC(=O)C3CCN(C(=O)c4ccc(F)cc4)CC3)sc2c1 | inconclusive: 2.82 µM [activator, partial curve]
CSc1cccc(NC(=O)CCCn2c(=O)c3cccn3c3cccnc32)c1 | inconclusive: 2.82 µM [activator, full curve]
CCCc1cc(-c2n[nH]c(=S)n2C(C)c2ccccc2)cs1 (centres undefined) | active: 22.4 µM
O=C(COc1ccccc1)N1CCN(C(=O)Cc2ccccc2)CC1 | inconclusive: 20 µM [activator, single point]
Fc1cccc(COc2ccccc2CNc2ccccc2)c1 | inconclusive: 2.51 µM [activator, partial curve]
Cc1c(C(=O)N2CCN(c3ccc(F)cc3)CC2)oc2c1C(=O)CCC2 | inconclusive: 5.01 µM [activator, partial curve, poor fit]
C[C@H](NC(=O)[C@H]1N2C(=O)c3ccccc3C2SC1(C)C)C(=O)NCC1CCCO1 (some centres undefined) | inconclusive: 0.398 µM [activator, full curve, poor fit]
COCCCNC(=O)c1cc(C(=O)c2c(-c3c(Cl)cccc3Cl)noc2C)c[nH]1 | inconclusive: 2.51 µM [activator, single point]
O=C(NN1C(=O)C2C3C=CC(C4CC34)C2C1=O)c1ccc(Cl)cc1 (centres undefined) | inconclusive: 0.708 µM [activator, full curve]
Cc1ccccc1NC(=O)Cc1nc(COC(=O)CNS(=O)(=O)c2cccc(Br)c2)cs1 | inconclusive: 4.47 µM [activator, single point]
CCOC(=O)C1C(=O)CC(C)(O)C(C(=O)OCC)C1c1ccccc1OC (centres undefined) | inconclusive: 10 µM [activator, partial curve]
C=CCn1c(CNC(=O)c2cccs2)nnc1SCc1ccc(Cl)cc1Cl | inconclusive: 8.91 µM [activator, single point]
Cc1ccc(NC(=O)c2cc(-c3ccccc3O)n[nH]2)cc1Cl | inactive
CN(C)CCC1Sc2ccccc2Oc2ccccc21 (centres undefined) | inconclusive: 12.6 µM [activator, partial curve]
CC(Oc1ccc(Cl)cc1)C(=O)N1CCCc2ccccc21 (centres undefined) | inconclusive: 0.447 µM [activator, full curve]
COC(=O)c1nccnc1C(=O)Nc1ccccc1N1CCOCC1 | inactive
COc1ccc(/C=C2/Sc3ccc(C(=O)NCCCN4CCOCC4)cc3NC2=O)cc1OC | inconclusive: 4.47 µM [activator, partial curve]
O=C(NC1CCN(C(=O)Nc2ccc(F)cc2)CC1)c1ccc(F)cc1 | inconclusive: 2.51 µM [activator, partial curve]
NC1=NC(=Nc2ccc(Cl)cc2)c2ccccc21 | inactive
C=C(C)CNC(=S)NNC(=O)CCn1c2ccc(Cl)cc2c2cc(Cl)ccc21 | inconclusive: 12.6 µM [activator, partial curve]
c1ccc2c(Nc3ccc(N4CCOCC4)cc3)nc(N3CCOCC3)nc2c1 | inactive
O=C(CN1C(=O)c2ccccc2C1=O)N1CCOCC1 | inconclusive: 3.98 µM [activator, single point]
O=C(CCN1C(=O)C2CC=CCC2C1=O)Nc1nccs1 (centres undefined) | inconclusive: 3.98 µM [activator, full curve]

Reformatted: results already given
Compound	Potency
C[C@H](NC(=O)[C@H]1N2C(=O)c3ccccc3C2SC1(C)C)C(=O)NCC1CCCO1 (some centres undefined)	inconclusive: 0.398 µM [activator, full curve, poor fit]
COCCCNC(=O)c1cc(C(=O)c2c(-c3c(Cl)cccc3Cl)noc2C)c[nH]1	inconclusive: 2.51 µM [activator, single point]
